These results are taken from publication PMC11926786 (Bioconjugate Chemistry, 2025).

HELM strings list residues between dots; [ac] is acetyl, [am] amide, other brackets name non-standard units. *1 amine or outer side, *2 acyl side, *3 side chain or, on linkers, in order; H or OH if unused. Side-chain parts run from the residue outwards. The star is where a group is joined. γGlu = O=C(O)[C@H](CCC(=O)[*:2])N[*:1]; Palmitoyl = CCCCCCCCCCCCCCCC(=O)*

Data set [1] can be described thus: peptide made by a vendor. The following applies: whole synthesis, acetate salt.
Data set [2] is described as follows: peptide made by a vendor. The following applies: whole synthesis, acetate salt. This is another data set of the same source.

For the substance “PEPTIDE1{H.A.E.G.T.F.T.S.D.V.S.S.Y.L.E.G.Q.A.A.K.E.F.I.A.W.L.V.K.G.R.G.[am]}$$$$V2.0”, the “final purity (method not given)” value in “peptide made by a vendor [1]” is on record as 99.2%.
For “H-HAEGTFTSDVSSYLEGK([γGlu-Palmitoyl])AAREFIAWLVRGRG-NH2 (SMILES CCCCCCCCCCCCCCCC(=O)N[C@@H](CCC(=O)NCCCC[C@H](NC(=O)CNC(=O)[C@H](CCC(=O)O)NC(=O)[C@H](CC(C)C)NC(=O)[C@H](Cc1ccc(O)cc1)NC(=O)[C@H](CO)NC(=O)[C@H](CO)NC(=O)[C@@H](NC(=O)[C@H](CC(=O)O)NC(=O)[C@H](CO)NC(=O)[C@@H](NC(=O)[C@H](Cc1ccccc1)NC(=O)[C@@H](NC(=O)CNC(=O)[C@H](CCC(=O)O)NC(=O)[C@H](C)NC(=O)[C@@H](N)Cc1c[nH]cn1)[C@@H](C)O)[C@@H](C)O)C(C)C)C(=O)N[C@@H](C)C(=O)N[C@@H](C)C(=O)N[C@@H](CCCNC(=N)N)C(=O)N[C@@H](CCC(=O)O)C(=O)N[C@@H](Cc1ccccc1)C(=O)N[C@H](C(=O)N[C@@H](C)C(=O)N[C@@H](Cc1c[nH]c2ccccc12)C(=O)N[C@@H](CC(C)C)C(=O)N[C@H](C(=O)N[C@@H](CCCNC(=N)N)C(=O)NCC(=O)N[C@@H](CCCNC(=N)N)C(=O)NCC(N)=O)C(C)C)[C@@H](C)CC)C(=O)O)”, in the data set “peptide made by a vendor [2]”, the “final purity (method not given)” value turned out to be 96.3%.
Still for that read-out and setting: to “H-HAEGTFTSDVSK([γGlu-Palmitoyl])YLEGQAAREFIAWLVRGRG-NH2 (SMILES CCCCCCCCCCCCCCCC(=O)N[C@@H](CCC(=O)NCCCC[C@H](NC(=O)[C@H](CO)NC(=O)[C@@H](NC(=O)[C@H](CC(=O)O)NC(=O)[C@H](CO)NC(=O)[C@@H](NC(=O)[C@H](Cc1ccccc1)NC(=O)[C@@H](NC(=O)CNC(=O)[C@H](CCC(=O)O)NC(=O)[C@H](C)NC(=O)[C@@H](N)Cc1c[nH]cn1)[C@@H](C)O)[C@@H](C)O)C(C)C)C(=O)N[C@@H](Cc1ccc(O)cc1)C(=O)N[C@@H](CC(C)C)C(=O)N[C@@H](CCC(=O)O)C(=O)NCC(=O)N[C@@H](CCC(N)=O)C(=O)N[C@@H](C)C(=O)N[C@@H](C)C(=O)N[C@@H](CCCNC(=N)N)C(=O)N[C@@H](CCC(=O)O)C(=O)N[C@@H](Cc1ccccc1)C(=O)N[C@H](C(=O)N[C@@H](C)C(=O)N[C@@H](Cc1c[nH]c2ccccc12)C(=O)N[C@@H](CC(C)C)C(=O)N[C@H](C(=O)N[C@@H](CCCNC(=N)N)C(=O)NCC(=O)N[C@@H](CCCNC(=N)N)C(=O)NCC(N)=O)C(C)C)[C@@H](C)CC)C(=O)O)” belongs 95.6%; to “PEPTIDE1{H.[Kpal].E.G.T.F.T.S.D.V.S.S.Y.L.E.G.Q.A.A.R.E.F.I.A.W.R.V.R.G.R.G.[am]}$$$$V2.0”, 96%; to “PEPTIDE1{H.[Aib].E.G.T.F.T.S.D.V.S.S.Y.L.E.G.Q.A.A.[Ksema].E.F.I.A.W.L.V.R.G.R.G.[am]}$$$$V2.0”, “approximately 96%”.
